“And” between values parts separate entries of the source, which are not always exact repeats. Equal entries are not always repeated. The list shows a part of the results. Shown are side measurements of this screen, not its main read-out; they come without a call. Most of these compounds were active or inconclusive in the main read-out, so they are no random draw. The note in brackets gives the kind of curve behind each potency; many fits are weak.
Assay: qHTS Assay for Modulators of Lamin A Splicing
Details: HeLa LMNA splicing GFP/RFP minigene ratio, 48 h
How it was run: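 S3 HeLa stable clones carrying a lamin A-EGFP splicing minigene plus DsRed2 were seeded at 600 cells/well in Opti-MEM with 2% FBS, pin-dosed and incubated 48 h at 37°C. Acumen cytometry (488 nm) gave the GFP/RFP total-intensity ratio.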

[1] = measured here: GFP splicing reporter channel
[2] = measured here: RFP viability control channel

Row | Compound | AC50 [1] | AC50 [2]
1 | CCOC(=O)N1CCC(Nc2c(Nc3cccc(CC)c3)c(=O)c2=O)CC1 | 14.1 µM [rising, single point] | 15.8 µM [rising, partial curve]
2 | COc1ccc(-c2csc(-n3ncc(-c4cccs4)c3N)n2)cc1 | – | 25.1 µM [falling, single point]
3 | O=C(COC(=O)CC1c2ccccc2CCN1S(=O)(=O)c1ccc(F)cc1)Nc1ccccc1 (stereo not given) | 6.31 µM [falling, single point] | –
4 | C/C(=N\NC(=O)c1ccccc1)c1nc2ccccc2n1C | 11.2 µM [rising, partial curve] | 17.8 µM [rising, single point]
5 | COC(=O)c1ccc(OC)c(CSc2nnc(COc3ccc(OC)cc3)o2)c1 | – | 35.5 µM [rising, single point]
6 | COc1ccc(CCNC(=O)c2ccc3ccccc3n2)cc1OC | 11.2 µM [falling, single point] | –
7 | O=C(N/N=C/c1cccc(Oc2ccccc2)c1)c1ccccc1Br | 35.5 µM [rising, single point] | –
8 | c1cnc2ncc3sccc3c2c1 | – | 14.1 µM [rising, single point]
9 | CSCc1cc(N(C)C)nc(SCc2ccc(Cl)c(Cl)c2)n1 | 14.1 µM [rising, partial curve] | 25.1 µM [rising, single point]
10 | C/C(=N/NS(=O)(=O)c1ccc(C)cc1)c1cccc(NC(=O)c2cccc(Cl)c2)c1 | 22.4 µM [falling, single point] | –
11 | O=C(NN=C1CCCCCC1)c1c[nH]c2ccccc12 | – | 0.891 µM [rising, full curve, poor fit]
12 | COC(=O)c1ccc(C)c(NS(=O)(=O)c2ccc(OC)c(OC)c2)c1 | 5.62 µM [falling, single point] | –
13 | CCc1cc2c(=O)c(-c3ccc4c(c3)OCCO4)c(C)oc2cc1OS(C)(=O)=O | – | 12.6 µM [rising, partial curve, poor fit]
14 | Cc1ccc2nc(N3CC(=O)Nc4ccccc43)nc(-c3ccccc3)c2c1 | – | 35.5 µM [rising, single point]
15 | CCOc1ccc2nc(NCCNC(=O)C(C)C)c(C)cc2c1 | 35.5 µM [rising, single point] | –
16 | Cc1nnc(SC(C(=O)Nc2cc(Cl)cc(Cl)c2)c2ccccc2)[nH]c1=O (stereo not given) | 1.78 µM [falling, full curve, poor fit] | –
17 | Cc1ccc(-c2ccc(SCC(=O)Nc3ccc4c(c3)OCCO4)nn2)cc1 | – | 25.1 µM [rising, single point]
18 | CNc1ccccc1C(C)(C)c1cc(-c2cccc(OC)c2)no1 | – | 11.2 µM [rising, partial curve]
19 | CC(=O)N1CCN=C1SCc1ccc(Br)cc1 | – | 35.5 µM [rising, single point]
20 | CCOc1ccc2nc(SCC(=O)Nc3ccc4c(c3)OCCO4)[nH]c2c1 | – | 35.5 µM [rising, single point]

Reformatted comma-delimited: entries from further up.
Row,Compound,AC50 [1],AC50 [2]
12,COC(=O)c1ccc(C)c(NS(=O)(=O)c2ccc(OC)c(OC)c2)c1,"5.62 µM [falling, single point]",–
13,CCc1cc2c(=O)c(-c3ccc4c(c3)OCCO4)c(C)oc2cc1OS(C)(=O)=O,–,"12.6 µM [rising, partial curve, poor fit]"
14,Cc1ccc2nc(N3CC(=O)Nc4ccccc43)nc(-c3ccccc3)c2c1,–,"35.5 µM [rising, single point]"

(continued)

Row | Compound | AC50 [1] | AC50 [2]
21 | Cc1cc(C=NCCCO)c(C)n1-c1cc(Cl)ccc1Cl | – | 2.51 µM [falling, partial curve]
22 | Fc1ccc(N2CCN(Cc3nnc(-c4ccccc4)o3)CC2)cc1 | – | 20 µM [rising, single point]
23 | CCOC(=O)/C(=C\c1cccc(O)c1)c1nc2sc(C)c(C)c2c(=O)[nH]1 | – | 11.2 µM [rising, partial curve]
24 | CCn1cc(C(C)NC(=O)COc2ccc(Cl)cc2C)c(C)n1 (stereo not given) | – | 35.5 µM [rising, single point]
25 | O=C1C2C3C=CC(C3)C2C(=O)N1Cc1ccc(CN2C(=O)C3C4C=CC(C4)C3C2=O)cc1 (stereo not given) | – | 15.8 µM [rising, single point]
26 | Cc1nc2sc(C(=O)Nc3ccccc3Cc3ccccc3)c(C)c2c(=O)[nH]1 | 3.16 µM [falling, partial curve] | 3.55 µM [falling, partial curve]
27 | COc1ccc(-c2cc(OC(=O)c3ccc(F)cc3)c3c(C)oc(C)c3c(=O)c2)cc1 | 14.1 µM [falling, single point] | –
28 | O=C(NCCO)c1ccc(Oc2ccc(C(F)(F)F)cc2[N+](=O)[O-])cc1 | 5.62 µM [rising, single point] | –
29 | C=CCn1cnc2c(c1=O)c1nc3ccccc3nc1n2/N=C/c1cccc(OC)c1 | 12.6 µM [falling, partial curve] | 22.4 µM [falling, partial curve]
30 | COCCSc1ccccc1C(=O)Nc1ccccc1C#N | 0.282 µM [rising, partial curve] | –
31 | CCCOc1ccccc1C1CC(=O)NC2=C1C(=O)CCC2 (stereo not given) | – | 12.6 µM [rising, single point]
32 | O=C(NCc1ccc(Cl)cc1)c1cc2c(nc3sccn32)s1 | – | 10 µM [rising, partial curve, poor fit]
33 | N=c1c2c(-c3ccccc3)c(-c3ccccc3)n(Cc3ccco3)c2ncn1CCCN1CCOCC1 | – | 12.6 µM [rising, partial curve]
34 | COCCCC/C(=N\OCCN)c1ccc(C(F)(F)F)cc1 | 501 nM [falling, full curve, poor fit] and 63.1 nM [rising, full curve, poor fit] | 0.251 µM [falling, full curve]
35 | CCN(CC)c1ccc(NC(=O)CN2C(=O)CSc3ncccc32)c(C)c1 | – | 5.01 µM [rising, full curve]
36 | CCOc1cc(S(=O)(=O)NCCc2ccccc2C)c(OCC)cc1-n1cnnn1 | – | 12.6 µM [rising, partial curve, poor fit]
37 | CCOC(=O)COc1cccc2c(=O)n(CC(=O)NCCc3ccccc3)ccc12 | – | 0.631 µM [falling, single point]
38 | CC(C)n1cc(/C=C(\C#N)S(=O)(=O)c2ccccc2)c2ccccc21 | 5.01 µM [rising, full curve] | 7.08 µM [rising, partial curve]
39 | COc1ccc(N(C(=O)c2ccccc2OC(C)=O)C(C)C2CC2)cc1 (stereo not given) | 15.8 µM [rising, single point] | –
40 | COc1ccc2nc(Sc3c([N+](=O)[O-])nc(C)n3Cc3ccccc3)[nH]c2c1 | 22.4 µM [falling, single point] | 35.5 µM [falling, single point]

Row | Compound | AC50 [1] | AC50 [2]
41 | Cc1cccc(C(=O)NCC(=O)OCc2cc(=O)n3nc(C)sc3n2)c1 | 3.55 µM [falling, partial curve] | 0.891 µM [falling, full curve, poor fit]
42 | O=C(Nc1ccc2nn(-c3ccccc3)nc2c1)c1ccc2c(c1)OCCO2 | 8.91 µM [rising, partial curve] | 15.8 µM [rising, partial curve]
43 | Cc1cc(OCc2cn3cccnc3n2)ccc1Cl | 5.62 µM [falling, single point] | –
44 | CSc1ccccc1-c1nnc(-c2ccccc2)o1 | – | 20 µM [rising, single point]
45 | CC1(c2ccc([N+](=O)[O-])cc2)CC(C)(C)N(C(=O)c2ccccc2)c2ccccc21 (stereo not given) | 3.55 µM [rising, single point] | 3.98 µM [rising, partial curve]
46 | COc1ccc2ccc3c(c2c1)N=C[C@]1(O3)N(C)c2ccccc2C1(C)C | – | 0.0355 µM [falling, single point]
47 | Clc1ccc2[nH]c(-c3ccccc3)cc2c1 | – | 31.6 µM [rising, single point]
48 | CN(C)c1ncnc2ccc(-c3ccoc3)cc12 | 14.1 µM [falling, partial curve] | 12.6 µM [falling, partial curve]
49 | Cc1ccc(-c2csc(NC(=O)C3=NN(c4ccccc4)C(=O)CC3)n2)cc1 | 5.62 µM [rising, single point] | 14.1 µM [rising, single point]
50 | COc1ccc(/C=N/NC(=O)C2C(C=C(Cl)Cl)C2(C)C)c(OC)c1 (stereo not given) | 0.0631 µM [rising, full curve, poor fit] | 0.0794 µM [rising, full curve, poor fit]
51 | Cc1ccc(C(=O)c2ccc(C)cc2)cc1 | – | 35.5 µM [falling, single point]
52 | CCOc1cccc2cc(-c3nc(-c4ccc(Cl)cc4)c(C)s3)c(=O)oc12 | – | 0.00708 µM [falling, full curve, poor fit]
53 | O=C(Nc1ccccc1)Nc1nnc(CSCc2ccccc2Cl)s1 | – | 15.8 µM [rising, single point]
54 | O=C(COc1ncnc2c1cnn2-c1ccccc1)Nc1ccc(S(=O)(=O)N2CCCCC2)cc1 | – | 35.5 µM [rising, single point]
55 | COc1ccc2c(c1)-c1nc(NC(=O)c3cccs3)sc1CC2 | – | 22.4 µM [falling, single point]
56 | COc1ccc(-c2ccc(NS(=O)(=O)c3ccccc3Cl)cc2)nn1 | – | 31.6 µM [rising, single point]
57 | O=C(CSc1n[nH]c(-c2ccc(S(=O)(=O)N3CCCCC3)cc2)n1)Nc1nccs1 | – | 12.6 µM [rising, single point]
58 | Fc1ccccc1SCc1nnc(-c2ccccc2Br)o1 | – | 35.5 µM [rising, single point]
59 | O=C1c2ccccc2C(=O)N1CCCCCc1nc(-c2ccccc2)no1 | – | 35.5 µM [rising, single point]
60 | CCOC(=O)C(NC(=O)c1ccccc1OCC)(Nc1ncccn1)C(F)(F)F (stereo not given) | 3.55 µM [rising, partial curve] | 4.47 µM [rising, partial curve]

Exported comma-delimited: entries from further up
Row,Compound,AC50 [1],AC50 [2]
49,Cc1ccc(-c2csc(NC(=O)C3=NN(c4ccccc4)C(=O)CC3)n2)cc1,"5.62 µM [rising, single point]","14.1 µM [rising, single point]"
50,COc1ccc(/C=N/NC(=O)C2C(C=C(Cl)Cl)C2(C)C)c(OC)c1 (stereo not given),"0.0631 µM [rising, full curve, poor fit]","0.0794 µM [rising, full curve, poor fit]"
